{"source": "the supplement of paper PMC10338343", "note": "± gives the standard deviation. The entries are a selection whose mix differs from that of the whole data set. The uncertainty is large for many entries.", "data": [{"test_system": "MILI (PIWIL2) piRISC loaded with L1MC piRNA (26 nt)", "experiment": "pre-steady-state target cleavage rate (min^-1); higher = faster piRNA-guided slicing of the target", "settings": "guide: L1MC piRNA 5'p-UAACUAAAUACUAUGCAAGCUGUAGG; auxiliary factor: none (no GTSF1)", "method_in_brief": "(§1)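 Cleave-'n-Seq: 1 nM active affinity-purified piRISC with one synthetic guide and 0.1 nM transcribed, DNA-blocked target RNA library were mixed, with or without 500 nM GTSF1 partner protein, in HEPES–potassium acetate buffer at 33 °C for 0–8 or 0–960 min. Uncleaved targets were sequenced and normalised to depth and to weakly complementary targets, three trials were pooled, and k3 was capped at 0.0001 min^-1. The pre-steady-state cleavage rate was fitted […].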", "values": [{"sequence": "UCCUGGAUGUCGAACCAUAGUUUUAGUUA", "pre-steady-state target cleavage rate": "0.000201 ± 0.014"}, {"sequence": "UCCUCCUACAGCAUCCAUAGUAUUUAGUUA", "pre-steady-state target cleavage rate": "0.0025 ± 0.0029"}, {"sequence": "UCCUGCUACAGCUUGGUUAGUAUUUACAAA", "pre-steady-state target cleavage rate": "0.000926 ± 0.0069"}, {"sequence": "UCCUGGUACAGCUUGCAUAGUAUAUACAAA", "pre-steady-state target cleavage rate": "0.00106 ± 0.0055"}, {"sequence": "UCCUGCUACAGCUUGCAUAGUUAAUACAAA", "pre-steady-state target cleavage rate": "0.00109 ± 0.0045"}, {"sequence": "UCCUCCUACAGCUAGCAUAGUAUUUAGAAA", "pre-steady-state target cleavage rate": "0.00131 ± 0.0036"}, {"sequence": "UCCUGGAUGAGCUUCCAUAGUAUUUACAAA", "pre-steady-state target cleavage rate": "0.000314 ± 0.02"}, {"sequence": "UCCUGGAACAGCUUGCAUAGUUAUUACAAA", "pre-steady-state target cleavage rate": "0.000687 ± 0.0078"}, {"sequence": "UCCUGGAUCAGCUUGCAUGUAUUUAGUUA", "pre-steady-state target cleavage rate": "0.00213 ± 0.0034"}, {"sequence": "UCCUGGAUGUCCUUCCAUAGUAUUUAGAUA", "pre-steady-state target cleavage rate": "0.000273 ± 0.015"}, {"sequence": "UCCUGGAUGUCGUUGCAUAGUAUUAAGUUA", "pre-steady-state target cleavage rate": "0.00271 ± 0.0034"}, {"sequence": "UCCUGGAUGUGCUUGCAUAGUAUUAAGAAA", "pre-steady-state target cleavage rate": "0.00115 ± 0.0056"}, {"sequence": "UCCUGGAUGUGCUUGCAUAGUUUUAAGUUA", "pre-steady-state target cleavage rate": "0.003 ± 0.0034"}, {"sequence": "UCCUGGAACAGCUUGCAUAGUAAUAAGUUA", "pre-steady-state target cleavage rate": "0.00188 ± 0.0036"}, {"sequence": "UCCUCCUACAGCUUGCAUAGUAUGUAGUUA", "pre-steady-state target cleavage rate": "0.000844 ± 0.0075"}, {"sequence": "UCCUGCUACAGGUUGCAUAGUAUUUACAAA", "pre-steady-state target cleavage rate": "0.00156 ± 0.0042"}, {"sequence": "UCCUCCUACAGCUUGCAAUGUAUUUAGAAA", "pre-steady-state target cleavage rate": "0.00122 ± 0.0049"}, {"sequence": "UCCUGGAUGUCGAACCAUUCAAUUUAGUUA", "pre-steady-state target cleavage rate": "0.000193 ± 0.025"}, {"sequence": "UCCUGGAACAGCUUGCAUACAUUUUAGUAA", "pre-steady-state target cleavage rate": "0.000951 ± 0.007"}, {"sequence": "UCCUCCUACAGCUUCCAUAGUAUUUAGAAA", "pre-steady-state target cleavage rate": "0.000494 ± 0.01"}, {"sequence": "UCCUGGUACAGCUUGCAUAGAUAUUACAAA", "pre-steady-state target cleavage rate": "0.000743 ± 0.009"}, {"sequence": "UCCUCCUACAGCUUGGUUAGUAUUUUCAAA", "pre-steady-state target cleavage rate": "0.0011 ± 0.0061"}, {"sequence": "UCCUGGUACAGCAACCAUAGUAUUUACAAA", "pre-steady-state target cleavage rate": "0.000641 ± 0.01"}, {"sequence": "UCCUGGAUCAGCUACCAUAGUAUUUACAAA", "pre-steady-state target cleavage rate": "< 0.0001"}, {"sequence": "UCCUGGAACAGCUUGCAUAGUAUUUGUUA", "pre-steady-state target cleavage rate": "0.000843 ± 0.0076"}, {"sequence": "UCCUGGAUCAGCUUGCAUAGAUUUUAGAAA", "pre-steady-state target cleavage rate": "0.000646 ± 0.007"}, {"sequence": "UCCUGGUACAGCUUGCAUAGUAUAAAGAAA", "pre-steady-state target cleavage rate": "0.000903 ± 0.008"}, {"sequence": "UCCUGGAACAGCUUGCAUUCAAUUUAGUAA", "pre-steady-state target cleavage rate": "0.000995 ± 0.0053"}, {"sequence": "UCCUGGAUCAGGUUGCAUAGUAUUUUCAAA", "pre-steady-state target cleavage rate": "0.00187 ± 0.0033"}, {"sequence": "UCCUGGUACAGCUUGCAUAGUAAUUUCAAA", "pre-steady-state target cleavage rate": "0.00166 ± 0.0042"}, {"sequence": "UCCUCCUACAGGAAGCAUAGUAUUUAGAAA", "pre-steady-state target cleavage rate": "0.000802 ± 0.0069"}, {"sequence": "UCCUGGAUGAGCUUGCAUAGUUAAUAGAAA", "pre-steady-state target cleavage rate": "0.000616 ± 0.012"}, {"sequence": "UCCUGGAUGUCGAAGCAAAGAAUUUAGUUA", "pre-steady-state target cleavage rate": "0.00035 ± 0.012"}, {"sequence": "UCCUGGAACAGCUUGCUUAGUAUUUUCAAA", "pre-steady-state target cleavage rate": "0.000836 ± 0.0057"}, {"sequence": "UCCUCCUACAGCUUGCAGUAGUAUUUAGUUA", "pre-steady-state target cleavage rate": "0.000318 ± 0.0091"}, {"sequence": "UCCUGGAUGUCGAUGCAUAGUAUUUAGUCUA", "pre-steady-state target cleavage rate": "0.00123 ± 0.0056"}, {"sequence": "UCCUGGAUGAGCUUGGUAAGUAUUUAGUAA", "pre-steady-state target cleavage rate": "0.00093 ± 0.0067"}, {"sequence": "UCCUGCUACAGCUUGCAUAGUAAUUAGAAA", "pre-steady-state target cleavage rate": "0.00127 ± 0.0057"}, {"sequence": "UCCUGGAUGUCGAAGCAUUCAAUUUAGUUA", "pre-steady-state target cleavage rate": "0.000296 ± 0.014"}]}, {"test_system": "MIWI (PIWIL1) piRISC loaded with L1MC piRNA (30 nt)", "experiment": "pre-steady-state target cleavage rate (min^-1); MIWI and MILI are mouse PIWI proteins and EfPiwi is from a freshwater sponge; tags in brackets are library labels; higher = faster piRNA-guided slicing of the target", "settings": "guide: L1MC piRNA 5'p-UAACUAAAUACUAUGCAAGCUGUAGGUCCU; auxiliary factor: none (no GTSF1)", "method_in_brief": "as §1", "values": [{"sequence": "UCCUGGAUGUCGAACCAUAGUUUUAGUUA", "pre-steady-state target cleavage rate": "0.000271 ± 0.015"}, {"sequence": "UCCUCCUACAGCAUCCAUAGUAUUUAGUUA", "pre-steady-state target cleavage rate": "0.00149 ± 0.0025"}, {"sequence": "UCCUGCUACAGCUUGGUUAGUAUUUACAAA", "pre-steady-state target cleavage rate": "0.00104 ± 0.0062"}, {"sequence": "UCCUGGUACAGCUUGCAUAGUAUAUACAAA", "pre-steady-state target cleavage rate": "0.00144 ± 0.0064"}, {"sequence": "UCCUGCUACAGCUUGCAUAGUUAAUACAAA", "pre-steady-state target cleavage rate": "0.00118 ± 0.0055"}, {"sequence": "UCCUCCUACAGCUAGCAUAGUAUUUAGAAA", "pre-steady-state target cleavage rate": "0.00138 ± 0.0043"}, {"sequence": "UCCUGGAUGAGCUUCCAUAGUAUUUACAAA", "pre-steady-state target cleavage rate": "0.000864 ± 0.0093"}, {"sequence": "UCCUGGAACAGCUUGCAUAGUUAUUACAAA", "pre-steady-state target cleavage rate": "0.0009 ± 0.0053"}, {"sequence": "UCCUGGAUCAGCUUGCAUGUAUUUAGUUA", "pre-steady-state target cleavage rate": "0.00263 ± 0.0027"}, {"sequence": "UCCUGGAUGUCCUUCCAUAGUAUUUAGAUA", "pre-steady-state target cleavage rate": "0.00046 ± 0.01"}, {"sequence": "UCCUGGAUGUCGUUGCAUAGUAUUAAGUUA", "pre-steady-state target cleavage rate": "0.00128 ± 0.0061"}, {"sequence": "UCCUGGAUGUGCUUGCAUAGUAUUAAGAAA", "pre-steady-state target cleavage rate": "0.0019 ± 0.0036"}, {"sequence": "UCCUGGAUGUGCUUGCAUAGUUUUAAGUUA", "pre-steady-state target cleavage rate": "0.00288 ± 0.0037"}, {"sequence": "UCCUGGAACAGCUUGCAUAGUAAUAAGUUA", "pre-steady-state target cleavage rate": "0.00233 ± 0.0038"}, {"sequence": "UCCUCCUACAGCUUGCAUAGUAUGUAGUUA", "pre-steady-state target cleavage rate": "0.00302 ± 0.0038"}, {"sequence": "UCCUGCUACAGGUUGCAUAGUAUUUACAAA", "pre-steady-state target cleavage rate": "0.00144 ± 0.0053"}, {"sequence": "UCCUCCUACAGCUUGCAAUGUAUUUAGAAA", "pre-steady-state target cleavage rate": "0.00128 ± 0.0057"}, {"sequence": "UCCUGGAUGUCGAACCAUUCAAUUUAGUUA", "pre-steady-state target cleavage rate": "0.000491 ± 0.0085"}, {"sequence": "UCCUGGAACAGCUUGCAUACAUUUUAGUAA", "pre-steady-state target cleavage rate": "0.00108 ± 0.0074"}, {"sequence": "UCCUCCUACAGCUUCCAUAGUAUUUAGAAA", "pre-steady-state target cleavage rate": "0.000871 ± 0.0066"}, {"sequence": "UCCUGGUACAGCUUGCAUAGAUAUUACAAA", "pre-steady-state target cleavage rate": "0.000675 ± 0.011"}, {"sequence": "UCCUCCUACAGCUUGGUUAGUAUUUUCAAA", "pre-steady-state target cleavage rate": "0.000899 ± 0.0065"}, {"sequence": "UCCUGGUACAGCAACCAUAGUAUUUACAAA", "pre-steady-state target cleavage rate": "0.000733 ± 0.01"}, {"sequence": "UCCUGGAUCAGCUACCAUAGUAUUUACAAA", "pre-steady-state target cleavage rate": "0.000443 ± 0.018"}, {"sequence": "UCCUGGAACAGCUUGCAUAGUAUUUGUUA", "pre-steady-state target cleavage rate": "0.00308 ± 0.0035"}, {"sequence": "UCCUGGAUCAGCUUGCAUAGAUUUUAGAAA", "pre-steady-state target cleavage rate": "0.00115 ± 0.0066"}, {"sequence": "UCCUGGUACAGCUUGCAUAGUAUAAAGAAA", "pre-steady-state target cleavage rate": "0.00158 ± 0.0056"}, {"sequence": "UCCUGGAACAGCUUGCAUUCAAUUUAGUAA", "pre-steady-state target cleavage rate": "0.000705 ± 0.011"}, {"sequence": "UCCUGGAUCAGGUUGCAUAGUAUUUUCAAA", "pre-steady-state target cleavage rate": "0.00117 ± 0.0054"}, {"sequence": "UCCUGGUACAGCUUGCAUAGUAAUUUCAAA", "pre-steady-state target cleavage rate": "0.000583 ± 0.0081"}, {"sequence": "UCCUCCUACAGGAAGCAUAGUAUUUAGAAA", "pre-steady-state target cleavage rate": "0.000328 ± 0.0072"}, {"sequence": "UCCUGGAUGAGCUUGCAUAGUUAAUAGAAA", "pre-steady-state target cleavage rate": "0.00118 ± 0.0078"}, {"sequence": "UCCUGGAUGUCGAAGCAAAGAAUUUAGUUA", "pre-steady-state target cleavage rate": "0.000452 ± 0.012"}, {"sequence": "UCCUGGAACAGCUUGCUUAGUAUUUUCAAA", "pre-steady-state target cleavage rate": "0.00156 ± 0.0043"}, {"sequence": "UCCUCCUACAGCUUGCAGUAGUAUUUAGUUA", "pre-steady-state target cleavage rate": "0.000767 ± 0.0089"}, {"sequence": "UCCUGGAUGUCGAUGCAUAGUAUUUAGUCUA", "pre-steady-state target cleavage rate": "0.00101 ± 0.0076"}, {"sequence": "UCCUGGAUGAGCUUGGUAAGUAUUUAGUAA", "pre-steady-state target cleavage rate": "0.000346 ± 0.01"}, {"sequence": "UCCUGCUACAGCUUGCAUAGUAAUUAGAAA", "pre-steady-state target cleavage rate": "0.00196 ± 0.0036"}, {"sequence": "UCCUGGAUGUCGAAGCAUUCAAUUUAGUUA", "pre-steady-state target cleavage rate": "0.000535 ± 0.0095"}]}]}
